Laboratory results: the supplement of paper PMC10849652
This is one part of the list.

The chains behind the UniProt entries cited, without tags or fusion partners. Where a name states a change or a piece, a line headed by the entry shows the natural chain unless it says otherwise.
UniProt O75937: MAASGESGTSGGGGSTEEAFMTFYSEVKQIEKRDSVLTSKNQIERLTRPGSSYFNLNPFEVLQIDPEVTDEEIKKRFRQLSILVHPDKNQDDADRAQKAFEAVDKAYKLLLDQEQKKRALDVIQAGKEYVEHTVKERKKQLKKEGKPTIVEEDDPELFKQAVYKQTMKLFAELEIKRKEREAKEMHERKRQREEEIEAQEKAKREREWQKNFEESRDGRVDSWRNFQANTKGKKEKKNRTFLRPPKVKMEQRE
UniProt Q8IVF4: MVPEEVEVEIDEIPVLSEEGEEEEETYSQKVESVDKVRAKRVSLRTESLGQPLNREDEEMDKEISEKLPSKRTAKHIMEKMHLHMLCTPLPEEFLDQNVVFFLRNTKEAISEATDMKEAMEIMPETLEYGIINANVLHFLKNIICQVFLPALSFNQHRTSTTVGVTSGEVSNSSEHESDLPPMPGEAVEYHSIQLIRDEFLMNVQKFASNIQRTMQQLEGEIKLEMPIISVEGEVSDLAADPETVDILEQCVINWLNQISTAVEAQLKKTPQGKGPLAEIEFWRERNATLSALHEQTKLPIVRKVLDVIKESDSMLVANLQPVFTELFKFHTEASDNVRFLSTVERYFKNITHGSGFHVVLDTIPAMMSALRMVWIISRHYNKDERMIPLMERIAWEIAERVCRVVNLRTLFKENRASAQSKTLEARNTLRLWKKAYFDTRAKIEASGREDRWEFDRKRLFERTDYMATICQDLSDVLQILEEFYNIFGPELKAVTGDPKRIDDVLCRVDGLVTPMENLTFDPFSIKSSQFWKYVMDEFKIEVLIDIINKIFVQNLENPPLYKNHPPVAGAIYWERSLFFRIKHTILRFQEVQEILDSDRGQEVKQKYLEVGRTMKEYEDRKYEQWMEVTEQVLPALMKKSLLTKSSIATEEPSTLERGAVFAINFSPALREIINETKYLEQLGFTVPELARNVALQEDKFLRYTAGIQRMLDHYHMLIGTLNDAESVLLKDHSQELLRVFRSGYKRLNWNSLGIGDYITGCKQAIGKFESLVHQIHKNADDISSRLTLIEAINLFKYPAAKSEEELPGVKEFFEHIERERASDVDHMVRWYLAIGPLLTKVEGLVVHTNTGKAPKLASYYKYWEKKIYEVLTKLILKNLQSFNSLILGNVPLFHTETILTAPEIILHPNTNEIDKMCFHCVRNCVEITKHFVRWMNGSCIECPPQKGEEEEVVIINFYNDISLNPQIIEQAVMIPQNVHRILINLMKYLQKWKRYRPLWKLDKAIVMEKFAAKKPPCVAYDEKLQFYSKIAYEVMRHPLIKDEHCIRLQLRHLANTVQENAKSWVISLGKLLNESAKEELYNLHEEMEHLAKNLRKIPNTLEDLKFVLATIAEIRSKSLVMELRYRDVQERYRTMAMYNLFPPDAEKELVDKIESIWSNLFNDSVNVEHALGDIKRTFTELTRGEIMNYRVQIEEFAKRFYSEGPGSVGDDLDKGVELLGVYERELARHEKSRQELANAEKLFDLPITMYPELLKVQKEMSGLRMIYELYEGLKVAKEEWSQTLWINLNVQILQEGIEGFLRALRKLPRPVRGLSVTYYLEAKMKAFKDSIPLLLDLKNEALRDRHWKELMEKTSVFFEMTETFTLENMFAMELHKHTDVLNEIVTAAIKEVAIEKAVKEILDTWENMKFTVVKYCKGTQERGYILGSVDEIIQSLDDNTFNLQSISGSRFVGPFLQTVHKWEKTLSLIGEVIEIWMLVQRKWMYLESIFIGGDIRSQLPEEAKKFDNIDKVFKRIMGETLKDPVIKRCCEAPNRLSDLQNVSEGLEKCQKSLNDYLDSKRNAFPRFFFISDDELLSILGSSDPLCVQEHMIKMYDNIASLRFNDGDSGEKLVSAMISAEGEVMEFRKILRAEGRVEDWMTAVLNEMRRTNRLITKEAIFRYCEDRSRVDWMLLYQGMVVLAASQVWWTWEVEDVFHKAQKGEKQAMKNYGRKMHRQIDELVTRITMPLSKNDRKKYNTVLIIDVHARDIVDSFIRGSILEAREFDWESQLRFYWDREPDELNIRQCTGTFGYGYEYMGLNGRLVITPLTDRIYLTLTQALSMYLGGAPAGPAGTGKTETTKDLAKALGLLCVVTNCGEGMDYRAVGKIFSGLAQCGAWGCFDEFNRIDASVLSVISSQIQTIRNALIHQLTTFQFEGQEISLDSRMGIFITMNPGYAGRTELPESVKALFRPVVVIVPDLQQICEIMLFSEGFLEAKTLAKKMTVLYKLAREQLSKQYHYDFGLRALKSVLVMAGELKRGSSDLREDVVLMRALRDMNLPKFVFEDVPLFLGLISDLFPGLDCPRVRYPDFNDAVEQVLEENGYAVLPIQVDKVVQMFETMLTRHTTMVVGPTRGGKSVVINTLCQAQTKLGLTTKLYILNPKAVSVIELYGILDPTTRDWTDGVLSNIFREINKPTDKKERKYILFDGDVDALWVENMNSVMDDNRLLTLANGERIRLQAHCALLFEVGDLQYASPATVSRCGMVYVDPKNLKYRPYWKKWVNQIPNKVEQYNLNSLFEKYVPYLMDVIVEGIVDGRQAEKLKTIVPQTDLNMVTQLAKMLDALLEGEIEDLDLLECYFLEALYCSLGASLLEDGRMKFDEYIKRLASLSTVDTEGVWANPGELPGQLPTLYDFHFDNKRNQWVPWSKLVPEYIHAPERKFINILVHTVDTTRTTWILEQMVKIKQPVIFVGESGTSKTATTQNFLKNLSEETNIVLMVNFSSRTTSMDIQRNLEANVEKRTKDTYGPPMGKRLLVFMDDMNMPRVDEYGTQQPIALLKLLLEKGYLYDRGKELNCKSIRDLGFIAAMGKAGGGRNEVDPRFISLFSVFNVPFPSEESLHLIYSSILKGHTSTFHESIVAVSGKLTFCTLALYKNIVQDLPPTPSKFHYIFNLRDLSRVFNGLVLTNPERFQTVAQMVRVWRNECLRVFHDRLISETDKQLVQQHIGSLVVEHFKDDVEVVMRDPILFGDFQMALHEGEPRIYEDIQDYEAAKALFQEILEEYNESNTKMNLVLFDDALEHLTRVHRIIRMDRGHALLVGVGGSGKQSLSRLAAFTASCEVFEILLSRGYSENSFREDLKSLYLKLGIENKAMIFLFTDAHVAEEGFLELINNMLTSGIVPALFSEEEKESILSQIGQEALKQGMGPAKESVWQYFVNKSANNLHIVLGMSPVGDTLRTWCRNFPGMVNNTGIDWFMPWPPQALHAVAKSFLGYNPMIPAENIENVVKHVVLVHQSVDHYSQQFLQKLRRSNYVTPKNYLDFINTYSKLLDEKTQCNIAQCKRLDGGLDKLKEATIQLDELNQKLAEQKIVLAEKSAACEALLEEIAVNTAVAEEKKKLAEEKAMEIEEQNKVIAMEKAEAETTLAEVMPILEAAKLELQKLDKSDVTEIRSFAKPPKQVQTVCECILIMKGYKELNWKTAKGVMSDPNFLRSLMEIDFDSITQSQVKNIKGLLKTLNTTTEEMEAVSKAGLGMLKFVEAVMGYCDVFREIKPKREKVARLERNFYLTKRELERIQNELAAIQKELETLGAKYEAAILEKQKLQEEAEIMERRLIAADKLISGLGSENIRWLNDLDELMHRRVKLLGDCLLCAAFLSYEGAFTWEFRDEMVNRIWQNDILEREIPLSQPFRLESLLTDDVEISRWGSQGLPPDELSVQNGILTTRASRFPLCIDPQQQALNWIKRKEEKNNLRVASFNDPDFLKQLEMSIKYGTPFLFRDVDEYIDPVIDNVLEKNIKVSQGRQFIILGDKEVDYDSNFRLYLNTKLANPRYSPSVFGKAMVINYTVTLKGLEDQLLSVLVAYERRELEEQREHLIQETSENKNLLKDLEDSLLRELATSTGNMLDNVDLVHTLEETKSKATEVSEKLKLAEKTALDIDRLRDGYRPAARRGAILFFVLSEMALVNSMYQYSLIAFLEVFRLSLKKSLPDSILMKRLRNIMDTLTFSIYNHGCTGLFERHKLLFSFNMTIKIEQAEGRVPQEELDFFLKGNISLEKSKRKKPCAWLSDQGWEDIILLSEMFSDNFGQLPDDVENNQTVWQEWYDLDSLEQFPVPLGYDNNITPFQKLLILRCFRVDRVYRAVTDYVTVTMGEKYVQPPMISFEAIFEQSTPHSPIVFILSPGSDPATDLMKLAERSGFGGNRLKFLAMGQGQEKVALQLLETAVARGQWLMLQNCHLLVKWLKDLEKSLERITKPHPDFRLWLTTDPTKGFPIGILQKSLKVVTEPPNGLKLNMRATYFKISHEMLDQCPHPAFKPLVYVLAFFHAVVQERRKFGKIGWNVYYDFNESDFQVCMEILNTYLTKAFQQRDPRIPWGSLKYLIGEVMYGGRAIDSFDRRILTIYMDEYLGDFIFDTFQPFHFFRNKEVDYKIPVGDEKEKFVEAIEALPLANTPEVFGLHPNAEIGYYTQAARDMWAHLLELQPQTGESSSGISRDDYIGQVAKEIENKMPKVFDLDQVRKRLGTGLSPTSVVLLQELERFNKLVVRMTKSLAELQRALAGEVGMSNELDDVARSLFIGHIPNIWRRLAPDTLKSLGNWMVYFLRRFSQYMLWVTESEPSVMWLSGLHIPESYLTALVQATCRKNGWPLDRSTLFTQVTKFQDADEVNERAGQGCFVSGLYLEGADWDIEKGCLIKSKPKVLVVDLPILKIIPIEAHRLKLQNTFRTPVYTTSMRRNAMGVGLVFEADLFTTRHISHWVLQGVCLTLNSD
UniProt Q68CQ4: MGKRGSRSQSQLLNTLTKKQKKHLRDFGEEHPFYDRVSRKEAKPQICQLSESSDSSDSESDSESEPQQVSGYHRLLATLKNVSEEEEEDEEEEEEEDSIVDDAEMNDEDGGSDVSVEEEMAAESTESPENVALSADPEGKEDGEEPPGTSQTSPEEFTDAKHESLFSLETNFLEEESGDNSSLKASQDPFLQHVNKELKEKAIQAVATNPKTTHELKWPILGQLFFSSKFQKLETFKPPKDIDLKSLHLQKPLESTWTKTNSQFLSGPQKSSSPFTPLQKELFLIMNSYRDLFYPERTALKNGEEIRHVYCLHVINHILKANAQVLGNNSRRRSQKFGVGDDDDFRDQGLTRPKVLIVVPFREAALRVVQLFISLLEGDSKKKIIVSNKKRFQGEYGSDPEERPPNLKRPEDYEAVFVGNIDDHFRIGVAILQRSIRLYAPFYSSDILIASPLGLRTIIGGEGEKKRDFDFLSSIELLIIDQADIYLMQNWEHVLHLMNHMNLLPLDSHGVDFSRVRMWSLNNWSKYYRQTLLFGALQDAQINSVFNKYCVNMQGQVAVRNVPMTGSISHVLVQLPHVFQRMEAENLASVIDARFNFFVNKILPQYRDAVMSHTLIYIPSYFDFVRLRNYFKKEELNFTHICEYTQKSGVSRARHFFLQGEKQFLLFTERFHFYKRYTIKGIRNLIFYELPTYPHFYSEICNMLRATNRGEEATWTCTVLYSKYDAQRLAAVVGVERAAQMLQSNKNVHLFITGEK
UniProt Q9BVM2: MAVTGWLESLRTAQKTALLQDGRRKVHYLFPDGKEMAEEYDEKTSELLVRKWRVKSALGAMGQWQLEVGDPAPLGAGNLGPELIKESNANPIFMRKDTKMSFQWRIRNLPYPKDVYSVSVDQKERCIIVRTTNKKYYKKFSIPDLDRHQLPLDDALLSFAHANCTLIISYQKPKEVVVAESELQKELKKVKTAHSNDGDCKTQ
UniProt O75061: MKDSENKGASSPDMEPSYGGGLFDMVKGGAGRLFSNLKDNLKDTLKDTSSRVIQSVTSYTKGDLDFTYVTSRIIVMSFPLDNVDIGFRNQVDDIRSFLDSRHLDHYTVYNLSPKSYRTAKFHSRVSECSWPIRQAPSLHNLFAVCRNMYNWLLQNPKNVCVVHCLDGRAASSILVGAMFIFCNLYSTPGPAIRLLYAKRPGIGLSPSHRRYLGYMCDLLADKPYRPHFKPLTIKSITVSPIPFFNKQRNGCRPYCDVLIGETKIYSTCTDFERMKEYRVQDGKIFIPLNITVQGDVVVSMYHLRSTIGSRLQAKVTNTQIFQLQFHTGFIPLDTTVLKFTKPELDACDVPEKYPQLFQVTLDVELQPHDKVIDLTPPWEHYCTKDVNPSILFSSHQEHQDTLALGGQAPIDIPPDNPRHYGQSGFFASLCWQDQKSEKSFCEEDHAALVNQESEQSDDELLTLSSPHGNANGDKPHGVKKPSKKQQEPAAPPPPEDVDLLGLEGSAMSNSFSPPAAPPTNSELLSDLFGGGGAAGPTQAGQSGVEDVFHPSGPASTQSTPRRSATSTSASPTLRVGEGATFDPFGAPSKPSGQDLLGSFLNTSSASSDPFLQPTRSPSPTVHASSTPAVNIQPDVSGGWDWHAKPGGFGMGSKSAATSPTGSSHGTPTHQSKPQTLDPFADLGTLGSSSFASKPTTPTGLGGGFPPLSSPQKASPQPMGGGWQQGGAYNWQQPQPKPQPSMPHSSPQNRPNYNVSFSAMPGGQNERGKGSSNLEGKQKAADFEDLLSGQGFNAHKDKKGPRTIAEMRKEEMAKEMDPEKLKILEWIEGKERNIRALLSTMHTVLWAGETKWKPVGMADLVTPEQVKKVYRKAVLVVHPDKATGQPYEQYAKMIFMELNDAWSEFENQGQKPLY

How the values were obtained:
Experiment in all cases: log2 fold change, soluble protein after heating vs DMSO (PISA); higher = thermal stabilisation; K562 lysate, 10 uM; active = over 0.2 and 3.5 SD of the protein, either way, in both replicates (recomputed)
erlotinib = compound: C#Cc1cccc(Nc2ncnc3cc(OCCOC)c(OCCOC)cc23)c1 [erlotinib]
How it was run: (§1)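 A 30 min treatment with 10 μM compound was applied to crude K562 extract at 1 mg/mL protein in PBS pH 7.4 with 1 mM MgCl2. Heating for 3 min spanned 48°C-58°C, after which aliquots were pooled, adjusted to 0.5% NP-40 at 4°C and spun at 21,000xg for 90 min. TMTpro 16plex LC-MS/MS of the supernatant, with channel sums equalised, gave values recorded as log-two fold change in thermal stability against solvent controls, from duplicates.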

[1] = compound: C/C(=N\NC(=O)C1=CC(=CC=C1)S(=O)(=O)N2CCOCC2)/C3=C(C=CC(=C3)Cl)O
How it was run: as §1

[2] = compound: C1=CC(=CC=C1C2=NC3=C(N2)C=C(C=C3)C(=O)N)OC4=CC=C(C=C4)Cl
How it was run: as §1

[3] = compound: C1=CC2=C(C=CC(=C2)/C=C\3/C(=O)NC(=NCC4=CC=CS4)S3)N=C1
How it was run: as §1

[4] = compound: C1=CC2=NC=CN=C2C=C1/C=C/3\C(=O)NC(=O)S3
How it was run: as §1

[5] = compound: C1=CC=C(C=C1)C2=NC(=C(N2)C3=CC=NC=C3)C4=CC(=C(C=C4)Cl)O
How it was run: as §1

[6] = compound: C1=CC=C2C(=C1)C3=NNC4=CC=CC(=C43)C2=O
How it was run: as §1

[7] = compound: C1CCN(C1)C(=O)NC2=CC=CC(=C2)NC3=NC=C(C(=N3)NCCC4=CN=CN4)Br
How it was run: as §1

[8] = compound: C1CN(CCC1(CC2=CC=C(C=C2)Cl)N)C3=NC=NC4=C3C=CN4
How it was run: as §1

IRAK-1-4 Inhibitor I = compound: C1COCCN1CCN2C3=CC=CC=C3N=C2NC(=O)C4=CC(=CC=C4)[N+](=O)[O-] [IRAK-1-4 Inhibitor I]
How it was run: as §1

ibrutinib = compound: C=CC(=O)N1CCC[C@@H](n2nc(-c3ccc(Oc4ccccc4)cc3)c3c(N)ncnc32)C1 [ibrutinib]
How it was run: as §1

[9] = compound: CC(=O)c1cnc2ccc(-c3cc(Cl)c(O)c(Cl)c3)nc2c1N[C@H]1CC[C@H](CN(C)C)CC1
How it was run: as §1

ralimetinib = compound: CC(C)(C)Cn1c(N)nc2ccc(-c3[nH]c(C(C)(C)C)nc3-c3ccc(F)cc3)nc21 [ralimetinib]
How it was run: as §1

[10] = compound: CC(C)(O)CC(=O)NCCn1ccc2ncnc(Nc3ccc(Oc4cccc(C(F)(F)F)c4)c(Cl)c3)c21
How it was run: as §1

[11] = compound: CC(C)C1=C2N=C(C=C(N2N=C1)NCC3=CC=CC=C3)NCCCCCCN
How it was run: as §1

[12] = compound: CC1=C(C(CC(=O)N1)C2=CC=C(C=C2)C(F)(F)F)C(=O)NC3=C(C=C4C(=C3)C=NN4)F
How it was run: as §1

[13] = compound: CC1=C(C2=C(C=C1)C(=O)C3=CC=CC=C3N2CCCN)C
How it was run: as §1

[14] = compound: CC1=C(C=C(C=C1)NC(=O)C2=CC(=CC=C2)C(C)(C)C#N)NC3=CC4=C(C=C3)N=CN(C4=O)C
How it was run: as §1

[15] = compound: CC1=C(C=C(C=C1)NC(=O)C2=CC(=CC=C2)N(C)C)NC(=O)C3=CC=C(C=C3)O
How it was run: as §1

[16] = compound: CC1=CC=C(C=C1)SC2=C3C=C(SC3=CN=C2)C(=O)N
How it was run: as §1

Measured: log2 fold change

DNAAF2 (UniProt Q9NVR5)
inactive: erlotinib 0.066 | [1] -0.032 | [2] -0.046 | [3] 0.026 | [4] -0.029 | [5] 0.027 | [6] -0.048 | [7] 0.029 | [8] 0.142 | IRAK-1-4 Inhibitor I 0.058 | ibrutinib 0.027 | [9] -0.001 | ralimetinib 0.013 | [10] -0.019 | [11] -0.049 | [12] -0.02 | [13] -0.015 | [14] 0.051 | [15] -0.023 | [16] -0.048

DIP2B (UniProt Q9P265)
inactive: erlotinib -0.011 | [1] -0.006 | [2] 0.017 | [3] -0.013 | [4] 0.001 | [5] -0.008 | [6] 0.023 | [7] 0.001 | [8] -0.012 | IRAK-1-4 Inhibitor I 0.005 | ibrutinib 0.017 | [9] -0.002 | ralimetinib -0.003 | [10] -0.052 | [11] 0.001 | [12] 0.02 | [13] -0.012 | [14] 0.014 | [15] -0.01 | [16] 0.015

DHRS11 (UniProt Q6UWP2)
inactive: erlotinib 0.054 | [1] -0.017 | [2] -0.004 | [3] 0.017 | [4] -0.006 | [5] -0.015 | [6] -0.008 | [7] -0.041 | [8] 0.042 | IRAK-1-4 Inhibitor I -0.02 | ibrutinib 0.028 | [9] -0.008 | ralimetinib 0.028 | [10] -0.014 | [11] 0.048 | [12] -0.005 | [13] -0.029 | [14] 0.007 | [15] 0.015 | [16] 0.03

DIMT1 (UniProt Q9UNQ2)
inactive: erlotinib -0.051 | [1] -0.033 | [2] -0.012 | [3] 0.009 | [4] -0.005 | [5] -0.007 | [6] -0.018 | [7] 0.019 | [8] -0.031 | IRAK-1-4 Inhibitor I 0.001 | ibrutinib 0.005 | [9] 0.002 | ralimetinib 0.008 | [10] -0.035 | [11] -0.017 | [12] -0.018 | [13] -0.057 | [14] -0.032 | [15] 0.004 | [16] -0.001

DNAJC8 (UniProt O75937)
inactive: erlotinib -0.043 | [1] 0.008 | [2] -0.018 | [3] 0.012 | [4] -0.007 | [5] 0.034 | [6] 0.005 | [7] 0.011 | [8] 0.004 | IRAK-1-4 Inhibitor I -0.068 | ibrutinib 0.015 | [9] 0.017 | ralimetinib -0.071 | [10] 0.082 | [11] -0.026 | [12] 0.024 | [13] -0.026 | [14] -0.031 | [15] -0.006 | [16] 0.041

DNM2 (UniProt P50570)
inactive: erlotinib 0.045 | [1] -0.009 | [2] 0.049 | [3] 0.013 | [4] 0.029 | [5] 0.003 | [6] -0.049 | [7] -0.022 | [8] -0.008 | IRAK-1-4 Inhibitor I 0 | ibrutinib 0.014 | [9] 0 | ralimetinib 0.013 | [10] 0.013 | [11] 0.018 | [12] 0.011 | [13] 0.024 | [14] -0.016 | [15] 0.006 | [16] 0.004

DNPH1 (UniProt H0Y8X4)
inactive: erlotinib -0.014 | [1] 0.029 | [2] -0.001 | [3] 0.001 | [4] -0.013 | [5] -0.022 | [6] 0.06 | [7] 0.008 | [8] 0.014 | IRAK-1-4 Inhibitor I -0.006 | ibrutinib -0.029 | [9] 0.003 | ralimetinib 0.037 | [10] 0.001 | [11] -0.015 | [12] 0.006 | [13] -0.032 | [14] -0.001 | [15] 0.01 | [16] 0.001

DNAH10 (UniProt Q8IVF4)
inactive: erlotinib 0.003 | [1] 0.047 | [2] -0.059 | [3] -0.053 | [4] -0.026 | [5] 0.026 | [6] -0.043 | [7] 0.012 | [8] 0.036 | IRAK-1-4 Inhibitor I 0.054 | ibrutinib 0.038 | [9] -0.017 | ralimetinib -0.123 | [10] -0.112 | [11] -0.015 | [12] -0.04 | [13] -0.069 | [14] 0.137 | [15] -0.014 | [16] -0.051

DNAJC11 (UniProt Q9NVH1)
inactive: erlotinib -0.008 | [1] -0.002 | [2] -0.055 | [3] 0.01 | [4] 0.021 | [5] -0.021 | [6] -0.041 | [7] 0.007 | [8] 0.024 | IRAK-1-4 Inhibitor I -0.021 | ibrutinib -0.009 | [9] 0.008 | ralimetinib 0.028 | [10] -0.038 | [11] -0.031 | [12] -0.008 | [13] 0.031 | [14] -0.032 | [15] 0.001 | [16] 0.021

2 neighbouring records out of the list so far, for reference:
DNAJC8 (UniProt O75937)
inactive: erlotinib -0.043 | [1] 0.008 | [2] -0.018 | [3] 0.012 | [4] -0.007 | [5] 0.034 | [6] 0.005 | [7] 0.011 | [8] 0.004 | IRAK-1-4 Inhibitor I -0.068 | ibrutinib 0.015 | [9] 0.017 | ralimetinib -0.071 | [10] 0.082 | [11] -0.026 | [12] 0.024 | [13] -0.026 | [14] -0.031 | [15] -0.006 | [16] 0.041

DNM2 (UniProt P50570)
inactive: erlotinib 0.045 | [1] -0.009 | [2] 0.049 | [3] 0.013 | [4] 0.029 | [5] 0.003 | [6] -0.049 | [7] -0.022 | [8] -0.008 | IRAK-1-4 Inhibitor I 0 | ibrutinib 0.014 | [9] 0 | ralimetinib 0.013 | [10] 0.013 | [11] 0.018 | [12] 0.011 | [13] 0.024 | [14] -0.016 | [15] 0.006 | [16] 0.004

(listing goes on)

DHRS7B (UniProt Q6IAN0)
inactive: erlotinib -0.023 | [1] -0.035 | [2] -0.011 | [3] -0.038 | [4] -0.063 | [5] -0.046 | [6] 0.006 | [7] -0.04 | [8] 0.046 | IRAK-1-4 Inhibitor I 0.044 | ibrutinib -0.045 | [9] 0.069 | ralimetinib -0.01 | [10] 0.091 | [11] 0.011 | [12] -0.055 | [13] -0.007 | [14] -0.058 | [15] -0.033 | [16] 0.042

DIEXF (UniProt Q68CQ4)
inactive: erlotinib 0.013 | [1] -0.025 | [2] 0.084 | [3] 0.051 | [4] -0.084 | [5] -0.016 | [6] 0.005 | [7] -0.065 | [8] 0.023 | IRAK-1-4 Inhibitor I -0.048 | ibrutinib -0.035 | [9] 0.013 | ralimetinib 0.019 | [10] -0.031 | [11] -0.09 | [12] 0.05 | [13] 0.003 | [14] -0.067 | [15] -0.019 | [16] 0.018

DPCD (UniProt Q9BVM2)
inactive: erlotinib 0.051 | [1] 0.057 | [2] 0.061 | [3] -0.011 | [4] 0.022 | [5] -0.007 | [6] -0.002 | [7] 0.013 | [8] -0.031 | IRAK-1-4 Inhibitor I -0.002 | ibrutinib 0.011 | [9] -0.059 | ralimetinib 0.044 | [10] -0.078 | [11] 0.016 | [12] 0.018 | [13] -0.015 | [14] -0.004 | [15] 0.015 | [16] -0.054

DNMT1 isoform 2 (UniProt P26358)
inactive: erlotinib -0.03 | [1] 0.022 | [2] 0.004 | [3] -0.024 | [4] -0.014 | [5] -0.008 | [6] 0.025 | [7] 0.007 | [8] 0 | IRAK-1-4 Inhibitor I -0.009 | ibrutinib -0.01 | [9] -0.004 | ralimetinib 0.018 | [10] 0.01 | [11] 0.004 | [12] -0.004 | [13] 0 | [14] -0.011 | [15] -0.004 | [16] 0.003

DIS3L2 (UniProt Q8IYB7)
inactive: erlotinib 0.004 | [1] 0.057 | [2] -0.039 | [3] -0.055 | [4] -0.002 | [5] -0.007 | [6] 0.013 | [7] -0.013 | [8] -0.023 | IRAK-1-4 Inhibitor I -0.048 | ibrutinib 0.03 | [9] 0.006 | ralimetinib 0.089 | [10] 0.025 | [11] 0 | [12] -0.01 | [13] 0.019 | [14] -0.049 | [15] -0.025 | [16] 0.014

DNAJC6 isoform 2 (UniProt O75061)
inactive: erlotinib 0 | [1] -0.152 | [2] 0.027 | [3] 0.002 | [4] -0.038 | [5] 0.013 | [6] 0.007 | [7] -0.064 | [8] 0.014 | IRAK-1-4 Inhibitor I -0.004 | ibrutinib 0.031 | [9] -0.033 | ralimetinib 0.015 | [10] -0.016 | [11] 0.009 | [12] -0.024 | [13] 0.011 | [14] 0.044 | [15] -0.048 | [16] -0.011

DHCR7 (UniProt Q9UBM7)
inactive: erlotinib -0.051 | [1] 0.081 | [2] -0.153 | [3] -0.016 | [4] 0.033 | [5] -0.024 | [6] -0.019 | [7] -0.058 | [8] 0.075 | IRAK-1-4 Inhibitor I 0.007 | ibrutinib -0.026 | [9] 0.016 | ralimetinib 0.071 | [10] -0.042 | [11] -0.018 | [12] 0.01 | [13] -0.007 | [14] -0.017 | [15] -0.011 | [16] -0.002
